{"sequences": {"note": "The chains behind the UniProt entries cited, without tags or fusion partners. Residues count along the entry.", "UniProt P05412, 252-308": "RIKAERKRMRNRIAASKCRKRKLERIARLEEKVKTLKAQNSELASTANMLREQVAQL"}, "source": "paper PMC9364023", "about": "“In vitro single molecule and bulk phase studies reveal the AP-1 transcription factor cFos binds to DNA without its partner cJun” (The Journal of Biological Chemistry, 2022)", "target": "cJun-mNeonGreen + cJun-mCherry (UniProt P05412)", "assay": "FRET excitation spectra", "conditions": "500 nM DNA, 590 nm peak with DNA suggests conformational effect upon binding; FRET: HSABC + 2.5 mM DTT, room temperature; recombinant protein; protein details: mNeonGreen or mCherry fusion, C-terminal His6", "note": "The exact form of at least one protein or probe is not confirmed. At least one verdict rests on a figure or table, not on a statement of the authors.", "data": [{"sequence": "GTCAGTCAGTGACTCAATCGGTCA (double strand) [TRE]", "values": [{"measurement": "binding result", "result": "binds"}]}]}
